Screen size: about 52,000 sequences; about 210 (0.4%) were called active.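 The calls were made as follows: active = gene whose silencing raises cell survival under the drug, median off-target-corrected z-score across its silencing RNAs 2 or more; inactive = the rest.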 This is one part of the list.

This assay in a line: Resistance to Poly (ADP-Ribose) Polymerase inhibitor: Gene Identification via Genome-wide siRNA Screen. As to conditions: mouse BRCA2 R2336H ES cells, olaparib, CellTiter-Glo viability; active compounds read high. The gist of the method: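 Mouse BRCA2 R2336H ES cells were reverse-transfected with siRNA (20 nM final), treated at 48 h with 500 nM olaparib, and read by CellTiter-Glo after 72 h. Scores: MAD-based z per siRNA, median per gene, seed off-target correction.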
With GGUUCCACAGUGGCAAAUGTT against V1ri7, the z-score was inactive: -0.665.

As for “GGACAAACCUUGGAAGAUUTT against 2410075B13Rik”, the z-score is inactive: 0.667. Then GGCAUAUGCUGAUUAUAGATT against Ankrd5, with inactive: 0.787; and “GCCUGACUUUAAUGAAGAATT against 6030443O07Rik”, with inactive: 0.356. Then CGGAGAGCCUUCCAUAUGATT against Ndufb8, with inactive: -0.0787; and “CCCAGGUCCUACCUUCUUUTT against 8430432M10Rik”, with inactive: -0.47; and “GCAGGGACUAUCAGAGUUCTT against D430018E03Rik”, with inactive: 0.959. For the sequence GCCUCAAACCAUCAUACUUTT against Ppp1r13b, the z-score is inactive: 0.376. Regarding “GCCUUUGAGAGCAGCCAGATT against 0610043B10Rik”, the z-score is inactive: -0.266. GGCAGAAUUACAUUUAACATT against Grik2: the z-score was inactive: 0.355. As to GGCCACAACAGAGAUUAAATT against Bank1, the z-score was inactive: 0.221. Then GGAGUUGAUUGAAAUCAUCTT against Atp5c1, with inactive: -1.13. Take GCAAAAGUGUAUCAUGAUGTT against Olfr1052: the z-score is inactive: -0.189.

For “GGACUUGGCUCCUUACCUGTT against G431004K08Rik”, the z-score was inactive: -0.996. Then “GGCUCUUUACAGAUAUUCCTT against 2810404F18Rik”, with inactive: 0.493; and GGGAUAUGAAAUCAUUUUCTT against Cyld, with inactive: 0.393; and GGCUGAAAAUAUUUUCAGATT against Garnl3, with inactive: 0.354. Then GGUCAGAACCCUAAAGACCTT against Tbcd, with inactive: -0.807; and GCAUACGUGUUCAAUGGUGTT against Ppef2, with inactive: 0.993. Then GGCUCUGAGCUACAUCUUUTT against Trex2, with inactive: 1.08; and GGCACAAUUAACAAGAAAATT against Pfn2, with inactive: -0.401. For the sequence GGUUAUUUUACAUGAGUACTT against Il15, the z-score is inactive: -1.71. For GGCAUUCAAACCUCUCGUGTT against Dcn, the z-score is inactive: 0.695. The value for GGAUGAACUUUCCUAAGUUTT against R75581 was inactive: -1.85. Regarding CCUCAUUGUAGUCACCCUCTT against Olfr91, the z-score is inactive: 1.62. For “UCGAGUGAAGCAGUCUCCATT against 5730507A09Rik”, the z-score is inactive: 0.0395. GGAACCCAACAUUGCCAAGTT against Ier3: the z-score is inactive: -0.51. Then GCGGACUGUUUUGAUACAUTT against Papd1, with inactive: -0.835; and CCUAGAGAACUUUCUUCUUTT against Olfr385, with inactive: 0.586; and GGAAAUCGAUUCUCAUGAUTT against St6gal2, with inactive: 1.29.

For the sequence GGCCGGAGCUUACGAUUUUTT against Camk2d, the z-score was inactive: -1.11. The value for GCCAUACACAGUGGCAUAATT against BC052046 was inactive: -2.02; that for GGAGACAGUGGUAUUUUGATT against Birc5 was inactive: -1.51; that for GCUGCAUAGAAUGACACGATT against Pip5kl1 was inactive: -0.122.

Regarding GGAAAACACUUUAAACCAGTT against Afg3l1, the z-score is inactive: -1.99. Then GCUAUGGAACAGUCUGUCCTT against Clecsf5, with inactive: 2.28; and GGAGGAACCCAAGUAGCCUTT against Serf2, with inactive: -0.252; and CCAGGUGGAGUCCAUCUUCTT against Acacb, with inactive: 1.68. As to “GGAUCAACAUGGUCUCCUCTT against 1700095N21Rik”, the z-score was inactive: -1.08.

With GGAUUUCAAUAGGCUCUCUTT against Rnf19, the z-score was inactive: -0.193. Then GGAGUUGAAAGCUCUGCUCTT against S100a15, with inactive: 0.776; and GGAGGUAAAGAUCAUGUCATT against Ddr1, with inactive: 0.596. For the sequence GGAUGAAGGCCAUUCAAACTT against Hnrpd, the z-score is inactive: 1.47.

With GGGUUACGCCUUCAUUAAUTT against Sf3b4, the z-score was inactive: -2.58. Regarding CCUUGGACUGAUAUUAGCUTT against Dtx3, the z-score was inactive: -2.03. Turning to GGAAGAACCCUGCUACAUCTT against Mrpl37, the z-score is inactive: -0.0162.

GGACAUGUCGGAUGGCUUCTT against P4ha1: the z-score is inactive: 0.93.

On to GGUGCAGAAGCUCAAGUUCTT against Cpne2, for which the z-score was inactive: 2.17.

As for GCCAUUGAUUGAACUCUCCTT against Pip5k1b, the z-score is inactive: 0.565. The value for CGGAAUGAUUCUGACUAAUTT against Mmp7 was inactive: 2.28. Turning to GCAUUUAAGUGUUGCAUUGTT against C1qtnf3, the z-score was inactive: 0.651. The value for GGCAGAAAAGAAGAAGAAUTT against Ktn1 was inactive: -1.8; that for GCACACCUACCACAACAUGTT against S100a11 was inactive: -1.01; that for “GGAAGGACUGUCAAAUGGCTT against 1110030J09Rik” was inactive: -0.906. Consider “CCUUGGCCAAUCUCCACAATT against 2810004N20Rik”, for which the z-score was inactive: -1.5. Then GGAAAAACGAUACUUGAUUTT against Gria3, with inactive: -0.0788; and “GGCACUAUGUUGAAAAAAUTT against 4732452J19Rik”, with inactive: -1.12. The value for GGCAAGAAAUACAAAGGAUTT against Pik4cb was inactive: -0.754; that for GGAUAUGACCCUAGAUUUATT against Gpm6b was inactive: 1.08; that for CGCACGAAGCUCUUUGUGUTT against BC022145 was inactive: -0.477. The value for GGCGACCCUGACUUCUAUATT against Spon1 was inactive: -0.873. Take GCAAUGAGUACUAUCAUACTT against Gnal: the z-score was inactive: -0.649. The value for CCUACCGUUACCUAAGUGATT against Kcnj5 was inactive: 0.0775; that for GGGAGAUUGAGAACUUUGCTT against Gpx7 was inactive: -2.06; that for GGUUGCAUGGCACAAGUCUTT against Olfr1213 was inactive: 1.02.

Regarding GGAAGCAGACAAUUGGUUUTT against MGC27863, the z-score was inactive: -0.328.

Turning to GCGAAGUUCCUGAGAUGGATT against Icsbp1, the z-score is inactive: -0.279. Then GGUUUCGACUCUGAUGUCATT against Rai12, with inactive: -1.97.

In the case of GGUUGUAGGAAGAAGAGAATT against Olfr957, the z-score is inactive: -1.73. Then GGCAGUUACAAAGUCUGUUTT against Timm8b, with inactive: -2.25. The value for “CGACAUUUUACUAAGAGAUTT against 5133401N09Rik” was inactive: -0.306. The value for CCCGCAACAAUAAACCUGATT against Yif1b was inactive: 0.665. On to GGUACCUGAGGAAAAGGUUTT against Nalp2, for which the z-score was inactive: -0.44. On to CCAUUUCCUACGCAAAAUGTT against Olfr1423, for which the z-score was inactive: 1.68. The value for “GGACCAGUUAGAGCAAAUGTT against 2300002M23Rik” was inactive: -0.679; that for GGCAGUCUCAGGUUAUCUCTT against AW610627 was inactive: 1.08; that for CCGUGGACCUAGGACUCAUTT against Olfr622 was inactive: -1.87. Then GCAGGAGAACUUUUUUAGUTT against Hus1, with inactive: 0.159; and “CCUUCAUAUCCCAGUAAAATT against 5730494N06Rik”, with inactive: -1.44; and GGUAUGUCCGACAUUUAACTT against Irx5, with inactive: 0.502. As to “GGAUAUAGAAGAUGAAGAATT against 2810408A11Rik”, the z-score was inactive: -0.299. Consider GCCGCUACCUAUGAUGUCCTT against Kcne4, for which the z-score was inactive: 0.615. Then CGGACAAAUGCUGUGCGUUTT against Kcnd1, with inactive: 0.605; and CGCACAUGAAGCCACAUAUTT against Plekhb1, with inactive: -1.

Turning to GGUUAUAGACAAGAUCGAUTT against Comp, the z-score was inactive: 0.263. The value for GCUAUUGACAUAAUGAGGCTT against Nfe2l3 was inactive: -0.195. In the case of CCGUACUUAUGUUAGCUGATT against Csnk1a1, the z-score is inactive: -1.21. The value for GGAAACCUUUACCAUAAACTT against AU040950 was inactive: -0.371. As for “GGUUUCCAGUUAUCUUAAUTT against 4921508O11Rik”, the z-score was inactive: -1.25. Then GCUCAUGCAACUCUGCGUUTT against Dpyd, with inactive: 1.23. Then GGCAAUAGGCAAUGGAAAATT against V2r15, with inactive: 1.2; and GGAGGAAGACACUCCCUCUTT against Atf4, with inactive: 2.42. Then “GGACUUCGACAAACUGAAGTT against C530030I18Rik”, with inactive: -2.35. On to GCGAAUGCUGGAGAAACUUTT against Aif1, for which the z-score was inactive: -1.05.

Turning to GCCCACUCACACCUAUUCUTT against Olfr1388, the z-score is inactive: -0.695. Then GCUGCUUACACAGGAUGUATT against Abcd3, with inactive: 0.521; and GCUACAACCCUGUCUGACATT against P4hb, with inactive: -1.54; and GCUUACCUCUAGAUACACUTT against Snrpd1, with inactive: -2.31. On to “GGCGGAAGUCCUUAUCAAATT against 2310008H09Rik”, for which the z-score is inactive: -0.182. Turning to “GGCAUAUACAUCAACAUGATT against 1700067C01Rik”, the z-score was inactive: 0.653. The value for GGUGCUGGCAACCUUUUGUTT against Masp1 was inactive: -0.89; that for GGGACGUGAACAGCUAAAGTT against AI413782 was inactive: 2.65; that for GGUGAAUGUAUAAGUUAUGTT against Icam1 was inactive: 0.291.

GGCCGGAGAAAAACUUUUGTT against Olfr1406: the z-score was inactive: 1.23.
